Laboratory results published in publication PMC10879184.
Results are given in words; binding and its absence hold for the method and conditions named. In cells and extracts the contact can be indirect. For some of these results: Binding calls can cover weak binding; strength is not graded here. For some of these results: Sequences can lack the tags named with a protein.

By UniProt entry, the sequences of proteins in these tests, tags left out. Where a name states a change or a piece, a line headed by the entry shows the natural chain unless it says otherwise.
UniProt Q0VGT2: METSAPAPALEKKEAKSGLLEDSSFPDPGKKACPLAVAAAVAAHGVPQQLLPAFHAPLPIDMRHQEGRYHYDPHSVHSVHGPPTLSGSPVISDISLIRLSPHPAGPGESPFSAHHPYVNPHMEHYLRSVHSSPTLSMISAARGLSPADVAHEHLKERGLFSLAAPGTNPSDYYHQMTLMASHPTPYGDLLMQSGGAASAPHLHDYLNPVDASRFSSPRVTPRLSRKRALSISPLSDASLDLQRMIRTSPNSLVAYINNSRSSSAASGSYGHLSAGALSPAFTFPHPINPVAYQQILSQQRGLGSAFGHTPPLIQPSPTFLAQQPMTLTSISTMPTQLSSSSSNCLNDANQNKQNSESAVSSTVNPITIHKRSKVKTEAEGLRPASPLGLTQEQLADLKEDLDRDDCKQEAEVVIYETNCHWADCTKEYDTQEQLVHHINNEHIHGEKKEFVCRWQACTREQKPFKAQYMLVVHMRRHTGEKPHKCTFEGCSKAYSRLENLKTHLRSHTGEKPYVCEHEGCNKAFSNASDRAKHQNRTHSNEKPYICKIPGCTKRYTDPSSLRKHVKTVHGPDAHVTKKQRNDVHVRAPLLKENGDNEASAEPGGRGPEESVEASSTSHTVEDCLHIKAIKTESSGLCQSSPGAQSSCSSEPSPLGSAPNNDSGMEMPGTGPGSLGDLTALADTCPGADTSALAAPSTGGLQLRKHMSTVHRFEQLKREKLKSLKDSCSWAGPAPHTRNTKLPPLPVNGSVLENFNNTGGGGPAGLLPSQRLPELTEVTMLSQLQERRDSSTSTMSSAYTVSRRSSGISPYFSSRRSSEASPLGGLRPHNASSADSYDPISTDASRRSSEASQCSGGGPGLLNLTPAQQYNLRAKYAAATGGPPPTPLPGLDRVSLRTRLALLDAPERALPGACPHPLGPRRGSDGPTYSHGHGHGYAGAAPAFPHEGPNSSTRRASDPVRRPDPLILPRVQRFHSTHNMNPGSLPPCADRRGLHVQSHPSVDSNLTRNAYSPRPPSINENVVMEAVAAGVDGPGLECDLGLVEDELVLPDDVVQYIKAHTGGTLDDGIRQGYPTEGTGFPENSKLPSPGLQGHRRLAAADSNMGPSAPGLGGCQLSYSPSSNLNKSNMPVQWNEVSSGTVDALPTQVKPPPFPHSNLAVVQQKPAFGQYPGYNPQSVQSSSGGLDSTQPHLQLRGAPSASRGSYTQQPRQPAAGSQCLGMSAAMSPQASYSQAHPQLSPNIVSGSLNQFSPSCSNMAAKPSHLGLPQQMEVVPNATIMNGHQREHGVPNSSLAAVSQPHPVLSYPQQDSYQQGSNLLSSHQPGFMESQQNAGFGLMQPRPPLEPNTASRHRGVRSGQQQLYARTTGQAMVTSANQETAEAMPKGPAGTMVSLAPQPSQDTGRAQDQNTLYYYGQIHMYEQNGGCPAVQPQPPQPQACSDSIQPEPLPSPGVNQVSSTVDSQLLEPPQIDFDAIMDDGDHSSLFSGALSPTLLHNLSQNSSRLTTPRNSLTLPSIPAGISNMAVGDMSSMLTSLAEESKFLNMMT
UniProt Q61025: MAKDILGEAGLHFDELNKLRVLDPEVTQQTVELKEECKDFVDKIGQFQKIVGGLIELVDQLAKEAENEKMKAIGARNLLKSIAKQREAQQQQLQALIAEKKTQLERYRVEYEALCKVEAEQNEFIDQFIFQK

What was measured:
HA-Lkb1 (mouse) = molecular target: T1, HA-Lkb1 (mouse) (UniProt Q9WTK7); experiment: co-IP; HEK293T cells co-transfected with EGFP-tagged Sec3/5/8 and HA-Lkb1; beads not stated; western blot
T1 sequence: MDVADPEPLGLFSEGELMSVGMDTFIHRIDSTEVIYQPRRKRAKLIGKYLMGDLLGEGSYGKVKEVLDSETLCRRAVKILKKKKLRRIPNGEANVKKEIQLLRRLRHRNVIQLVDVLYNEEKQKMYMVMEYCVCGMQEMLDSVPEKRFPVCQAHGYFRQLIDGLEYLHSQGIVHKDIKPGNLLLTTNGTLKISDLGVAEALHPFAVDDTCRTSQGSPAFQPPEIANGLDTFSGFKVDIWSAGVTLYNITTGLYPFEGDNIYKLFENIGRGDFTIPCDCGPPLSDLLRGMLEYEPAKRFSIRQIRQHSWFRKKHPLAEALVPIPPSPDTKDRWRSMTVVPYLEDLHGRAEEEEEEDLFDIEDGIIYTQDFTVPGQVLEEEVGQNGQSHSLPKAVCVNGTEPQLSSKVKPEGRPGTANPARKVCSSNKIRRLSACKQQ

[1] = molecular target: HA-Gli2(P1-6A), overexpressed in HEK293T (UniProt Q0VGT2); experiment: co-IP; co-IP with HA-Gli2(P1-6A), Supplementary Fig. S4a; cells, beads and constructs not told in the text shown

Row | binding [1] | Substance | binding (HA-Lkb1 (mouse))
1 |  | EGFP-tagged Sec5 | binds
2 |  | EGFP-tagged Sec8 | binds
3 | no binding | IFT20 (from UniProt Q61025 1-132) | 
4 |  | EGFP-tagged Sec3 | binds
